In the M2OR odorant receptor database:
The entries are a selection whose mix differs from that of the whole data set. Calls are pooled over several reports, among them a noisy single-well screen. Some of the results follow.

How the values were obtained:
Conditions in all cases: stereoisomer not certain
OR52K2 (Homo sapiens) = target: T1, OR52K2 (Homo sapiens) (UniProt Q8NGK3)
T1 sequence (whole entry): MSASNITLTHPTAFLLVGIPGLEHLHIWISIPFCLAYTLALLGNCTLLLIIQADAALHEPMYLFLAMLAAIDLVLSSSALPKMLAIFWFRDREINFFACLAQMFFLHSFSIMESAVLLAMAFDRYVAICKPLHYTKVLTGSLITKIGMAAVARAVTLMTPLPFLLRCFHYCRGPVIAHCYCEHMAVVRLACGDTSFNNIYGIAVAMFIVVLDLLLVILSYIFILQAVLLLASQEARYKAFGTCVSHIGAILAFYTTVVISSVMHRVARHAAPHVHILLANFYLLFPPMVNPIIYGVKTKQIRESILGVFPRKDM
How it was run: (§1)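 Values were gathered from published papers (main text and supplementary material), with extra details requested from the original authors when needed, and checked for typos and inconsistencies. Each receptor–molecule pair is called responsive (active) if the original authors judged the measured signal statistically different from baseline, and non-responsive (inactive) otherwise. Assay methods varied by source, often transient mammalian cell-line luciferase assays. Recorded details include cell line, G-protein, co-transfected protein and tags.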

OR52N5 (Homo sapiens) = target: T2, OR52N5 (Homo sapiens) (UniProt Q8NH56)
T2 sequence (whole entry): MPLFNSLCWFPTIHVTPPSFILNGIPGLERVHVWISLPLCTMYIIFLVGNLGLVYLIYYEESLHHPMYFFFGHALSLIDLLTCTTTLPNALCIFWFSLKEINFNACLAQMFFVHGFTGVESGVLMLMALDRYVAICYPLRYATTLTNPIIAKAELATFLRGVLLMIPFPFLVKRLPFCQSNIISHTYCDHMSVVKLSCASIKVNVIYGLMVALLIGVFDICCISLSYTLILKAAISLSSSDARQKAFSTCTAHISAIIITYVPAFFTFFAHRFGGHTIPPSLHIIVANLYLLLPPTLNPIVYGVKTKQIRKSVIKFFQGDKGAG
How it was run: as §1

OR56A1 (Homo sapiens) = target: T3, OR56A1 (Homo sapiens) (UniProt Q8NGH5)
T3 sequence (whole entry): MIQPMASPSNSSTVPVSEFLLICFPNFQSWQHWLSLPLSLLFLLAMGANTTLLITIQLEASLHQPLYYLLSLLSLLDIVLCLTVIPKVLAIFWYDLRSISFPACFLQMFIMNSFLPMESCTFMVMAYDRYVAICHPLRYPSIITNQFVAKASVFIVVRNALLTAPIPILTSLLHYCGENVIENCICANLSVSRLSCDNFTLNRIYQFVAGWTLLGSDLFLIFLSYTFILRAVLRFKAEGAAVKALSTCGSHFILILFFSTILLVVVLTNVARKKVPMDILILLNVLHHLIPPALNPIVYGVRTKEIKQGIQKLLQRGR
How it was run: as §1

OR56A4 (Homo sapiens) = target: T4, OR56A4 (Homo sapiens) (UniProt Q8NGH8)
T4 sequence (whole entry): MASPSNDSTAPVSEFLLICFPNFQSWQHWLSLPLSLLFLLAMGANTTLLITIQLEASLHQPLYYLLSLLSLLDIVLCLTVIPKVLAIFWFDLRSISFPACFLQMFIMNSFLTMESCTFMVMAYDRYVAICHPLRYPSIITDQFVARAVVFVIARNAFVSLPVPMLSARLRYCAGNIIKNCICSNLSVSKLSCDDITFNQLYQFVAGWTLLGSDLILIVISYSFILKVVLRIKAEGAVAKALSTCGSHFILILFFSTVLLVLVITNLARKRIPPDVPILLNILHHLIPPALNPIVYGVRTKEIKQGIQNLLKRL
How it was run: as §1

OR56A5 (Homo sapiens) = target: T5, OR56A5 (Homo sapiens) (UniProt P0C7T3)
T5 sequence (whole entry): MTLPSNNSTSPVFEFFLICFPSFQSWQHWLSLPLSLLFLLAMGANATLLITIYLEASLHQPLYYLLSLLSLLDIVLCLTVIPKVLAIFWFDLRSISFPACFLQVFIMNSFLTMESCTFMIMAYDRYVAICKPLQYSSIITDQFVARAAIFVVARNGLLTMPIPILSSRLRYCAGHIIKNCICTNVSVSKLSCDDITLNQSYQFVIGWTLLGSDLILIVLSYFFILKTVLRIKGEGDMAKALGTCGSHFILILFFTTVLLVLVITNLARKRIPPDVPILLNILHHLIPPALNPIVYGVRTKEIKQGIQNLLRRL
How it was run: as §1

OR5A1 [1] = tested on: T6, OR5A1
T6 sequence (whole entry): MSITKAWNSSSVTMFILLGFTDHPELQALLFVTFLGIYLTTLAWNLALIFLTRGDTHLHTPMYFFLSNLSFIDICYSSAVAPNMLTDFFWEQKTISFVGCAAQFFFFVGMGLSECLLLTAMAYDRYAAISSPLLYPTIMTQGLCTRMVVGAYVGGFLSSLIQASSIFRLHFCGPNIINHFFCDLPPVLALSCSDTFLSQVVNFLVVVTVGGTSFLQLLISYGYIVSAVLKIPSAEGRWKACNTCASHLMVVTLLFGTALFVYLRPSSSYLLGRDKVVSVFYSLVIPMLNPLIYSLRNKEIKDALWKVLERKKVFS
How it was run: as §1

OR5A1 [2] = tested on: T7, OR5A1; remark: listed apart in the source
T7 sequence (whole entry): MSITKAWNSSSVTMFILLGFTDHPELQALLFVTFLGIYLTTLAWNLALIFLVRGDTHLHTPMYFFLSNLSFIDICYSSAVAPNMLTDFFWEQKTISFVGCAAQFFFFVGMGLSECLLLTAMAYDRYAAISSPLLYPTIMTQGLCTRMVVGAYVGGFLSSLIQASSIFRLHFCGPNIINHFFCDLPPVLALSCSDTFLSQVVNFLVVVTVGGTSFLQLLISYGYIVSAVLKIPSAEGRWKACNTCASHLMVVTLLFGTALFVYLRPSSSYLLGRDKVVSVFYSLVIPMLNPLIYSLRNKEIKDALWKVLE
How it was run: as §1

OR5A1 [3] = tested on: T8, OR5A1; remark: listed apart in the source
T8 sequence (whole entry): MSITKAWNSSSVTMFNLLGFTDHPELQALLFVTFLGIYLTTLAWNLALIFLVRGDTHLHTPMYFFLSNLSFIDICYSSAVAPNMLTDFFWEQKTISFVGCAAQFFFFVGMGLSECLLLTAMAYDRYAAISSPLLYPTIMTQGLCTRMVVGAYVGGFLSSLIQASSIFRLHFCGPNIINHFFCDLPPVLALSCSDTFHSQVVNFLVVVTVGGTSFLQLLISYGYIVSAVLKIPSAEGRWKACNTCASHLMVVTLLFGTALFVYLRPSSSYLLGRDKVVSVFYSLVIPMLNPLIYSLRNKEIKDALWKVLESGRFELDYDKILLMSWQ
How it was run: as §1

OR5A2 (Homo sapiens) = target: T9, OR5A2 (Homo sapiens) (UniProt Q8NGI9)
T9 sequence (whole entry): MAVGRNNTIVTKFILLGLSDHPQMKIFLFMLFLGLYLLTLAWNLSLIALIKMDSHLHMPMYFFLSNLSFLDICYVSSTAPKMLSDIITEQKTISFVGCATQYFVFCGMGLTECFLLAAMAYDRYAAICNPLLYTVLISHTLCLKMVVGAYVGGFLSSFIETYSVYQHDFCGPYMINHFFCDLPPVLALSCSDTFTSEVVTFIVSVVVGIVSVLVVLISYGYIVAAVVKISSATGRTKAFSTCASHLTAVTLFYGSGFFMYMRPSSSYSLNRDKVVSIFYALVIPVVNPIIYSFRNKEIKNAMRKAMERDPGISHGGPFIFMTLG
How it was run: as §1

OR5AK2 (Homo sapiens) = target: T10, OR5AK2 (Homo sapiens) (UniProt Q8NH90)
T10 sequence (whole entry): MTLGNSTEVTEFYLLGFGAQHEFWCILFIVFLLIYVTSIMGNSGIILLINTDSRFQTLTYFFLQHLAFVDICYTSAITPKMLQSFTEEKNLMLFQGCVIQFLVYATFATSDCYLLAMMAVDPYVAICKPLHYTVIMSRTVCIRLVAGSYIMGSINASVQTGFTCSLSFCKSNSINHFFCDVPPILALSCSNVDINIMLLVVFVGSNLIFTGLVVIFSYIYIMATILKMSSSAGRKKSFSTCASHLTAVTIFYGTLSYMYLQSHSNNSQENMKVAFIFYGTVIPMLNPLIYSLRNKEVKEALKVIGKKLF
How it was run: as §1

Measured: odorant receptor agonist call

CCCCOC(C)=O
inactive: all assays above
